Literature values in patent publication US8691198B2, “Environmentally benign plasticizers based on derivatives of acetone” (priority 2010, dated 2014).

Tested on: rat
Details: left half of Table 1

For `CC(C)CC(=O)O` [Isovaleric acid], the “LD50(rat)” value is given as 3200 mg/kg.
